Where a name gives a salt, the structure may show the parent alone. This is one part of the list. Hit calls seldom repeat between salt and free forms of one compound.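 Kinases, fused to nanoluciferase, were expressed in K562 cells; luminescence was measured every 4 h from 2 to 18 h as percent of control (DMSO = 100%, positive control = 0%). A time point is decreased if signal falls significantly (2 sigma). Hits were called by the authors by a rule that is not shown; the count of time points alone does not decide it.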
Tests used:
Experiment in all cases: kinase-Nluc reporter destabilization hit call (1 = scored as downregulated) (binary); higher = compound decreases kinase abundance
Details in all cases: K562; 2-18 h
IRAK3 = IRAK3 (UniProt Q9Y616)
JAK1 = JAK1 (UniProt P23458)
LCK = LCK (UniProt P06239)
LIMK1 = LIMK1 (UniProt P53667)
LIMK2 = LIMK2 (UniProt P53671)
LMTK2 = LMTK2 (UniProt Q8IWU2)
LYN = LYN (UniProt P07948)
MAP2K1 = MAP2K1 (UniProt Q02750)
MAP2K2 = MAP2K2 (UniProt P36507)
MAP4K2 = MAP4K2 (UniProt Q12851)

Chains of the proteins cited; added tags and fusions are not shown. Lines headed by an entry give the natural chain unless they say otherwise; changes in a name come on top.
UniProt Q9Y616: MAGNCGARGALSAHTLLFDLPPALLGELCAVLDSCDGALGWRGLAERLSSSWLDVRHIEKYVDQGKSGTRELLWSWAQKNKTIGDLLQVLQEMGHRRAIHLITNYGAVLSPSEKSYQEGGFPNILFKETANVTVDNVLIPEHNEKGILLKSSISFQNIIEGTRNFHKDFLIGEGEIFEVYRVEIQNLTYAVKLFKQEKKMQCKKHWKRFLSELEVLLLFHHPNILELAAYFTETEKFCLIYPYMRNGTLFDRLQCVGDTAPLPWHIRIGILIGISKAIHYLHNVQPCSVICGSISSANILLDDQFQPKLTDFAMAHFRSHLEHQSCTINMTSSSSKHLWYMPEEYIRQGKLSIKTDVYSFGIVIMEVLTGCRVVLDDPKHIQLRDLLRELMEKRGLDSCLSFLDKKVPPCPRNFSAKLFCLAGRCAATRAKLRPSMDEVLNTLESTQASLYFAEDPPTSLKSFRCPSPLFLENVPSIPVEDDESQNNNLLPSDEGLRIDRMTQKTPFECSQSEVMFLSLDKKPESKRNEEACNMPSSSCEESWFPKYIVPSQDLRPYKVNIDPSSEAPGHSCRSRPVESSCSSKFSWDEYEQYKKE
UniProt P23458: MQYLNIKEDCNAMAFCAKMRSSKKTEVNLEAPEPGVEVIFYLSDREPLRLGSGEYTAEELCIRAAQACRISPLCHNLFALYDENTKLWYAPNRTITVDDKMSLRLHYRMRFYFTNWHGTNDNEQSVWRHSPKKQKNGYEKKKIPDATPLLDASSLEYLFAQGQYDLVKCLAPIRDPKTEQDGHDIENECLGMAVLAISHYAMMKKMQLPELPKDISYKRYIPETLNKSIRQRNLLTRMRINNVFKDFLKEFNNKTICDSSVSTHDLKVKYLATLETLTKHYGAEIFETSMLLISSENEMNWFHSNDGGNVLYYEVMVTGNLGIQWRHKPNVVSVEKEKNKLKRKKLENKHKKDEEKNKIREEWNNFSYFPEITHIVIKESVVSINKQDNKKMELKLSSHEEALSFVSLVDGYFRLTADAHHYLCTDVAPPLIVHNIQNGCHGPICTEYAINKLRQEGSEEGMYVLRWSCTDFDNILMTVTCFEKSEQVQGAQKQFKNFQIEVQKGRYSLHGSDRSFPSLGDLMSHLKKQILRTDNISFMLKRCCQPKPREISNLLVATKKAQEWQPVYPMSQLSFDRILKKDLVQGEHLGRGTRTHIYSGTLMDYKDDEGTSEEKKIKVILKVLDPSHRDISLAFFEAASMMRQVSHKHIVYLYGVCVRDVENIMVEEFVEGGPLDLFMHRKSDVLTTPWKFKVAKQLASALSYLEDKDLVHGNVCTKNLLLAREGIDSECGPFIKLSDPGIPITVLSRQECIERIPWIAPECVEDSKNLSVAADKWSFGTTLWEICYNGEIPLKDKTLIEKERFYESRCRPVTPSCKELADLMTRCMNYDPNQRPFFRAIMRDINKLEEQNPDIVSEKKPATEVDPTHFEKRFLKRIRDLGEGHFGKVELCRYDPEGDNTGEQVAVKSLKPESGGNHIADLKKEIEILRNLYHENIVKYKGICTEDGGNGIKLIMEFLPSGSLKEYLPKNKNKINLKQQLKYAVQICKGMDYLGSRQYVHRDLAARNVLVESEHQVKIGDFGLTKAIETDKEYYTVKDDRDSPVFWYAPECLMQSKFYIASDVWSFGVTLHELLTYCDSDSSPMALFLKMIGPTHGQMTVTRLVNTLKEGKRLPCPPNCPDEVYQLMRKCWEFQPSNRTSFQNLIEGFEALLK
UniProt P06239: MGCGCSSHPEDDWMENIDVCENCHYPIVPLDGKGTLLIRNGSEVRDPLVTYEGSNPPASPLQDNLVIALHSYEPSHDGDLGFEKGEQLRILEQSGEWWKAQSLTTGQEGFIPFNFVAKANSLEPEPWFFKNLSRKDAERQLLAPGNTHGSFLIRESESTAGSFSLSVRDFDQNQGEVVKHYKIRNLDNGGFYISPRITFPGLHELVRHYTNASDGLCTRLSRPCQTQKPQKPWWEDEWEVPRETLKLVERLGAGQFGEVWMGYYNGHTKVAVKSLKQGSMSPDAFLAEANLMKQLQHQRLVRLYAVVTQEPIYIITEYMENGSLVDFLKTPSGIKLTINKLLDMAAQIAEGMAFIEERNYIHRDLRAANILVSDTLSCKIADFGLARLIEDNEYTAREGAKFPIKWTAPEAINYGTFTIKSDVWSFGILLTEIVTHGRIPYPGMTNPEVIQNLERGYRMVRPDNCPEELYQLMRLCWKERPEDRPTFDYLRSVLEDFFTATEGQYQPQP
UniProt P53667: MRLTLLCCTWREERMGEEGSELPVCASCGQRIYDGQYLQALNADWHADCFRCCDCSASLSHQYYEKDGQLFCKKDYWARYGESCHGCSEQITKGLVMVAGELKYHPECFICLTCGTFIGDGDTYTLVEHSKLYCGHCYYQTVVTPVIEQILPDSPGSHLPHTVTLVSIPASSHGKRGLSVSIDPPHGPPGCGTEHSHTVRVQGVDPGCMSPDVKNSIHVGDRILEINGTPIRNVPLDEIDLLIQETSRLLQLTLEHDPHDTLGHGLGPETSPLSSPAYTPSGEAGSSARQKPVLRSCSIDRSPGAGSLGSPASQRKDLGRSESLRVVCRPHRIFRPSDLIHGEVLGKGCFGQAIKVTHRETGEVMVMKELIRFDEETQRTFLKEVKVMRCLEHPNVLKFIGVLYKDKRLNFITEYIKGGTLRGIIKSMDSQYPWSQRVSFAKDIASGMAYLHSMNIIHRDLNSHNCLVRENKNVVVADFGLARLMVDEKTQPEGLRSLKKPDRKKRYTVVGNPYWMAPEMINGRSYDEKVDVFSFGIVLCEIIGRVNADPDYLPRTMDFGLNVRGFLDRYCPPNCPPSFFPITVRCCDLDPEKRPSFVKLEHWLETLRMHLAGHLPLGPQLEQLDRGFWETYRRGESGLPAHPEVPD
UniProt P53671: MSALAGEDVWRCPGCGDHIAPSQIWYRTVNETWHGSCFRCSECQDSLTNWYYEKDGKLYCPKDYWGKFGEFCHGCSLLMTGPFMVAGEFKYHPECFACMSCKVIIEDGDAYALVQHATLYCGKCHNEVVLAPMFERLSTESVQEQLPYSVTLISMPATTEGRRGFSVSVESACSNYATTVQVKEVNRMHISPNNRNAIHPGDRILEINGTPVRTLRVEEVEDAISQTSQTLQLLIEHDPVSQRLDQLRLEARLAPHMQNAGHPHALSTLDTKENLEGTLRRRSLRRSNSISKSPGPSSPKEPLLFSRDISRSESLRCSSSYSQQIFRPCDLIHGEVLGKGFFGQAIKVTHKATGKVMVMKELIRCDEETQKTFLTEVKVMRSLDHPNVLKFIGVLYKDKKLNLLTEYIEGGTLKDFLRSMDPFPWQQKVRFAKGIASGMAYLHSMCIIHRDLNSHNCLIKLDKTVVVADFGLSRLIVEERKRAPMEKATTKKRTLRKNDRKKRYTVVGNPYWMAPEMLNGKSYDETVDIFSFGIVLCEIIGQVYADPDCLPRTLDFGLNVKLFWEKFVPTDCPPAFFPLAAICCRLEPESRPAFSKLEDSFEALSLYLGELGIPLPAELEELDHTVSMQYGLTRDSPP
UniProt Q8IWU2: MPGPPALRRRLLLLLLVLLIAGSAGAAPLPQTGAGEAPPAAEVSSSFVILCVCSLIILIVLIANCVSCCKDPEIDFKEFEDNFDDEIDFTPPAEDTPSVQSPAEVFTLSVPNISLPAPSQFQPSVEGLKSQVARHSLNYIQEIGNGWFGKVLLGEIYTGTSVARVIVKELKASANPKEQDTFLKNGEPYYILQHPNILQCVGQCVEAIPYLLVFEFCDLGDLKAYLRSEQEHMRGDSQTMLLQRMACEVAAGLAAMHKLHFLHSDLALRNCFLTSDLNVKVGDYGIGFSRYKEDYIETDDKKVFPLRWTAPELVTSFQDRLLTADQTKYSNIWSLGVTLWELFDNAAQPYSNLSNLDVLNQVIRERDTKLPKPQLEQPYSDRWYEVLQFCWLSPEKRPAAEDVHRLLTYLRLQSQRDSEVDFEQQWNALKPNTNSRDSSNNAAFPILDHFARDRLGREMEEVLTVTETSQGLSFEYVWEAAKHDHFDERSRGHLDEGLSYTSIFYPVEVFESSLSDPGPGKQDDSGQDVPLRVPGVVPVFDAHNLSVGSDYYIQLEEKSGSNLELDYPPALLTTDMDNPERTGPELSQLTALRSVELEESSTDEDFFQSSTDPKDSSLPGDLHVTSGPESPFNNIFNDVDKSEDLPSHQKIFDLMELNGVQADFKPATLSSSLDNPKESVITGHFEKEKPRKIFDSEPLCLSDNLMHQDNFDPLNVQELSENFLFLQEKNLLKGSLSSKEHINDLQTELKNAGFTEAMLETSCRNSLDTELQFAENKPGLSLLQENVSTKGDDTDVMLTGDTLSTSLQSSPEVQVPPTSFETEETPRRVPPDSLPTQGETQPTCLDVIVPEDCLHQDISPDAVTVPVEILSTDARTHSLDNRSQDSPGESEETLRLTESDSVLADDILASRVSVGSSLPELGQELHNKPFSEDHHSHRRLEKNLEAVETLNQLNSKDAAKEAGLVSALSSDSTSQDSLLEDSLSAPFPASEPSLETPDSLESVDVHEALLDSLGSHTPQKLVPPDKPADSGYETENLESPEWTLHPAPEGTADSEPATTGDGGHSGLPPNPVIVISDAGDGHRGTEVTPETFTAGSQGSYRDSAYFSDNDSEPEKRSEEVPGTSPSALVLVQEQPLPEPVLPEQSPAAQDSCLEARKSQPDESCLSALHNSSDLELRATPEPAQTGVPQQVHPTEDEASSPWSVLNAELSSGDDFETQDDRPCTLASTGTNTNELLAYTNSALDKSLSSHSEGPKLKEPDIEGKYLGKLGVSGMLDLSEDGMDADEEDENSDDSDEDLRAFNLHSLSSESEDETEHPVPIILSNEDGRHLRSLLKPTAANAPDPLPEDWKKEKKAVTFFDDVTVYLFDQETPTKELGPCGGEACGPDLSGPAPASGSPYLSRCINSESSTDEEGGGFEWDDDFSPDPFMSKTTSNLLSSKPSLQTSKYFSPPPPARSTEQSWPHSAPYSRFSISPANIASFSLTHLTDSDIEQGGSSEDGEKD
UniProt P07948: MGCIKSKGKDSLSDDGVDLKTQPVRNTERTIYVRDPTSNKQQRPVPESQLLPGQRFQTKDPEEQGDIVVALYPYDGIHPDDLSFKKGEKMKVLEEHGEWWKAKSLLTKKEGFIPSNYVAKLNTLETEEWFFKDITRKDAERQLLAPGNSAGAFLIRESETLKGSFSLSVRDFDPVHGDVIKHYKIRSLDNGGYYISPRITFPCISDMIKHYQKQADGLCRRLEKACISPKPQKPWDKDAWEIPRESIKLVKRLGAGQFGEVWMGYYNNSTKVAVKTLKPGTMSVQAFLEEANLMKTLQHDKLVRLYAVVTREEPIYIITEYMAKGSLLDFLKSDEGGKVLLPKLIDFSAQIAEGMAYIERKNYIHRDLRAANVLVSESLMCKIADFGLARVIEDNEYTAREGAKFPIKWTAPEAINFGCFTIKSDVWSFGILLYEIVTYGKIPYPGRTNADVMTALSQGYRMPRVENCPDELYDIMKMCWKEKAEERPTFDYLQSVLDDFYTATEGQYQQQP
UniProt Q12851: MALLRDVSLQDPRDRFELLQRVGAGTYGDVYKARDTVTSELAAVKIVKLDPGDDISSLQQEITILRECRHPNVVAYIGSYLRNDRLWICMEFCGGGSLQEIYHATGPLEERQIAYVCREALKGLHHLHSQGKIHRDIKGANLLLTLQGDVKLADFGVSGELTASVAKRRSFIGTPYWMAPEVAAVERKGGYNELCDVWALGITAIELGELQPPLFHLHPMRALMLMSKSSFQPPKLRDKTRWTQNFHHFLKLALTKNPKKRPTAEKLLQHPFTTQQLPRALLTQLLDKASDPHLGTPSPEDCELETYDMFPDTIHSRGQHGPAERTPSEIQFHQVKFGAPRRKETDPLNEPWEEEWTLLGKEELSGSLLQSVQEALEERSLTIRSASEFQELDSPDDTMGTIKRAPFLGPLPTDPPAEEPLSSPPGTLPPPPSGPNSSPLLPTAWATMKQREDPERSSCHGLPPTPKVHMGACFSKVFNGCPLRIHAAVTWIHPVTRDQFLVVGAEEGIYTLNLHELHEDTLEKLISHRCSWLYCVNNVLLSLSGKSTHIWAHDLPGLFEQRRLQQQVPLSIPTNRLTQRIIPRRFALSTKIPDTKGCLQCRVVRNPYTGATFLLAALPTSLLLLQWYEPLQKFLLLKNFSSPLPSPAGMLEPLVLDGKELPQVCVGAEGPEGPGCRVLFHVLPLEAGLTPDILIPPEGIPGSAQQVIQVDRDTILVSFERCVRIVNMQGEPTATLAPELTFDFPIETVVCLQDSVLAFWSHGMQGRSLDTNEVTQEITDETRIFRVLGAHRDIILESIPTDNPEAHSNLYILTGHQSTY

Measured: kinase-Nluc reporter destabilization hit call

COc1ncc2cc(C(=O)Nc3cc(C(=O)NCc4cccc(Cl)c4)ccc3Cl)c(=O)[nH]c2n1 (2.5 µM)
inactive: IRAK3 = 0 | JAK1 = 0 | LCK 0 | LIMK1 = 0 | LIMK2 = 0 | LMTK2 = 0 | LYN 0 | MAP2K1 = 0 | MAP2K2 = 0 | MAP4K2 = 0

O=S(=O)(N=Cc1c(O)ccc2ccccc12)c1cccs1 (10 µM)
inactive: IRAK3 = 0 | JAK1 = 0 | LCK 0 | LIMK1 = 0 | LIMK2 = 0 | LMTK2 = 0 | LYN 0 | MAP2K1 = 0 | MAP2K2 = 0 | MAP4K2 = 0

COC(=O)[C@]1(C)CC[C@]2(C(=O)O[C@@H]3O[C@H](CO)[C@@H](O)[C@H](O)[C@H]3O)CC[C@]3(C)C(=CC[C@@H]4[C@@]5(C)C[C@H](O)[C@H](O[C@@H]6OC[C@@H](O[C@@H]7O[C@H](CO)[C@@H](O)[C@H](O)[C@H]7O)[C@H](O)[C@H]6O)[C@@](C)(CO)C5CC[C@]43C)[C@H]2C1 (stereo not given in full) [Esculentoside H] (10 µM)
inactive: IRAK3 = 0 | JAK1 = 0 | LCK 0 | LIMK1 = 0 | LIMK2 = 0 | LMTK2 = 0 | LYN 0 | MAP2K1 = 0 | MAP2K2 = 0 | MAP4K2 = 0

CC(C)(C)S(=O)(=O)c1cc2c(Nc3ccc4scnc4c3)ccnc2cc1OCCOCCOCCOCCOCC(=O)Nc1cccc2c1CN(C1CCC(=O)NC1=O)C2=O (stereo not given) [PROTAC RIPK degrader-6] (10 µM)
inactive: IRAK3 = 0 | JAK1 = 0 | LCK 0 | LIMK1 = 0 | LIMK2 = 0 | LMTK2 = 0 | LYN 0 | MAP2K1 = 0 | MAP2K2 = 0 | MAP4K2 = 0

CC(C)(C)c1ccc(C(=O)Nc2cn3cc(-n4ccnc4)ccc3n2)cc1 (10 µM)
inactive: IRAK3 = 0 | JAK1 = 0 | LCK 0 | LIMK1 = 0 | LIMK2 = 0 | LMTK2 = 0 | LYN 0 | MAP2K1 = 0 | MAP2K2 = 0 | MAP4K2 = 0

Cc1ccc(CNC(=O)N2CCC[C@]3(CCN(Cc4ccc(Cl)c(Cl)c4)C3)C2)cc1 (10 µM)
inactive: IRAK3 = 0 | JAK1 = 0 | LCK 0 | LIMK1 = 0 | LIMK2 = 0 | LMTK2 = 0 | LYN 0 | MAP2K1 = 0 | MAP2K2 = 0 | MAP4K2 = 0

Quoted at random: two entries already listed.
CC(C)(C)c1ccc(C(=O)Nc2cn3cc(-n4ccnc4)ccc3n2)cc1 (10 µM)
inactive: IRAK3 = 0 | JAK1 = 0 | LCK 0 | LIMK1 = 0 | LIMK2 = 0 | LMTK2 = 0 | LYN 0 | MAP2K1 = 0 | MAP2K2 = 0 | MAP4K2 = 0

O=S(=O)(N=Cc1c(O)ccc2ccccc12)c1cccs1 (10 µM)
inactive: IRAK3 = 0 | JAK1 = 0 | LCK 0 | LIMK1 = 0 | LIMK2 = 0 | LMTK2 = 0 | LYN 0 | MAP2K1 = 0 | MAP2K2 = 0 | MAP4K2 = 0

Further entries

O=c1sn(-c2cccc3ccccc23)c(=O)n1Cc1ccccc1 [Tideglusib] (10 µM)
inactive: IRAK3 = 0 | JAK1 = 0 | LCK 0 | LIMK1 = 0 | LIMK2 = 0 | LMTK2 = 0 | LYN 0 | MAP2K1 = 0 | MAP2K2 = 0 | MAP4K2 = 0

COc1ccc(F)cc1C(=O)NCc1ccc(-c2nn([C@@H](C)C(F)(F)F)c(N)c2C(N)=O)cc1 [Pirtobrutinib] (10 µM)
inactive: IRAK3 = 0 | JAK1 = 0 | LCK 0 | LIMK1 = 0 | LIMK2 = 0 | LMTK2 = 0 | LYN 0 | MAP2K1 = 0 | MAP2K2 = 0 | MAP4K2 = 0

Cc1c(C(=O)Nc2ccc(Oc3ccnc4cc(OCC(C)(C)O)ccc34)c(F)c2)c(=O)n(-c2ccccc2)n1C [Ningetinib Tosylate] (10 µM)
inactive: IRAK3 = 0 | JAK1 = 0 | LCK 0 | LIMK1 = 0 | LIMK2 = 0 | LMTK2 = 0 | LYN 0 | MAP2K1 = 0 | MAP2K2 = 0 | MAP4K2 = 0

O=c1[nH]nc(Sc2ncc([N+](=O)[O-])s2)n1-c1ccc2c(c1)OCCO2 (2.5 µM)
inactive: IRAK3 = 0 | JAK1 = 0 | LCK 0 | LIMK1 = 0 | LIMK2 = 0 | LMTK2 = 0 | LYN 0 | MAP2K1 = 0 | MAP2K2 = 0 | MAP4K2 = 0

COC(=O)c1cc2c(OC(C)C)cc(OC(C)C)cc2[nH]1 (2.5 µM)
inactive: IRAK3 = 0 | JAK1 = 0 | LCK 0 | LIMK1 = 0 | LIMK2 = 0 | LMTK2 = 0 | LYN 0 | MAP2K1 = 0 | MAP2K2 = 0 | MAP4K2 = 0

O=c1ccc2cc(O)c(O)cc2o1 [Esculetin] (10 µM)
inactive: IRAK3 = 0 | JAK1 = 0 | LCK 0 | LIMK1 = 0 | LIMK2 = 0 | LMTK2 = 0 | LYN 0 | MAP2K1 = 0 | MAP2K2 = 0 | MAP4K2 = 0

Cc1cc(/C=C2\CC/C(=C\c3cc(C)c(O)c(C)c3)C2=O)cc(C)c1O [Pentagamavunon-1] (2.5 µM)
inactive: IRAK3 = 0 | JAK1 = 0 | LCK 0 | LIMK1 = 0 | LIMK2 = 0 | LMTK2 = 0 | LYN 0 | MAP2K1 = 0 | MAP2K2 = 0 | MAP4K2 = 0

C=CC(=O)Nc1cccc(Oc2nc(Nc3ccc(N4CCN(C)CC4)cc3)ncc2Cl)c1 (2.5 µM)
inactive: IRAK3 = 0 | JAK1 = 0 | LCK 0 | LIMK1 = 0 | LIMK2 = 0 | LMTK2 = 0 | LYN 0 | MAP2K1 = 0 | MAP2K2 = 0 | MAP4K2 = 0

COc1cc(OC)c(/C=C/S(=O)(=O)Cc2ccc(OC)c(NCC(=O)O)c2)c(OC)c1 [Rigosertib (sodium)] (10 µM)
inactive: IRAK3 = 0 | JAK1 = 0 | LCK 0 | LIMK1 = 0 | LIMK2 = 0 | LMTK2 = 0 | LYN 0 | MAP2K1 = 0 | MAP2K2 = 0 | MAP4K2 = 0

C[C@@H](N)COc1ccc(-c2cnc3ccc(N[C@H](C)c4cccc(F)c4)nn23)cc1 [Taletrectinib] (2.5 µM)
inactive: IRAK3 = 0 | JAK1 = 0 | LCK 0 | LIMK1 = 0 | LIMK2 = 0 | LMTK2 = 0 | LYN 0 | MAP2K1 = 0 | MAP2K2 = 0 | MAP4K2 = 0

O=C(Nc1nccs1)C(c1cc(F)ccc1O)N1Cc2ccccc2C1=O (stereo not given) (10 µM)
inactive: IRAK3 = 0 | JAK1 = 0 | LCK 0 | LIMK1 = 0 | LIMK2 = 0 | LMTK2 = 0 | LYN 0 | MAP2K1 = 0 | MAP2K2 = 0 | MAP4K2 = 0

CC[C@H](C)[C@@H]1NC(=O)[C@@H]2CCCN2C(=O)[C@@H]2CCCN2C(=O)[C@@H]2CCCN2C(=O)[C@H](CC(C)C)NC(=O)CNC(=O)CNC(=O)[C@H](Cc2ccccc2)NC1=O [Heterophyllin B] (10 µM)
inactive: IRAK3 = 0 | JAK1 = 0 | LCK 0 | LIMK1 = 0 | LIMK2 = 0 | LMTK2 = 0 | LYN 0 | MAP2K1 = 0 | MAP2K2 = 0 | MAP4K2 = 0

COc1cccc(Nc2ncnn3ccc(CN4CC[C@@H](N)[C@H](O)C4)c23)c1 (2.5 µM)
inactive: IRAK3 = 0 | JAK1 = 0 | LCK 0 | LIMK1 = 0 | LIMK2 = 0 | LMTK2 = 0 | LYN 0 | MAP2K1 = 0 | MAP2K2 = 0 | MAP4K2 = 0

C[C@@H]1CN(CC(=O)Nc2ccc3c(c2)Cc2cccc(-c4cc(=O)cc(N5CCOCC5)o4)c2S3)C[C@H](C)O1 (2.5 µM)
inactive: IRAK3 = 0 | JAK1 = 0 | LCK 0 | LIMK1 = 0 | LIMK2 = 0 | LMTK2 = 0 | LYN 0 | MAP2K1 = 0 | MAP2K2 = 0 | MAP4K2 = 0

CCN1C(C)(C)CC(Oc2ccc(C(=O)Nc3ccc(NC(=O)Nc4cc(C(C)(C)C)on4)cc3)nc2)CC1(C)C (10 µM)
inactive: IRAK3 = 0 | JAK1 = 0 | LCK 0 | LIMK1 = 0 | LIMK2 = 0 | LMTK2 = 0 | LYN 0 | MAP2K1 = 0 | MAP2K2 = 0 | MAP4K2 = 0

O=C1C(=Cc2ccc(O)c(O)c2)Oc2ccccc21 (2.5 µM)
inactive: IRAK3 = 0 | JAK1 = 0 | LCK 0 | LIMK1 = 0 | LIMK2 = 0 | LMTK2 = 0 | LYN 0 | MAP2K1 = 0 | MAP2K2 = 0 | MAP4K2 = 0

CC(C)(O)c1cc2nc(-c3cnc(N)nc3)nc(N3CCOCC3)c2s1 (2.5 µM)
inactive: IRAK3 = 0 | JAK1 = 0 | LCK 0 | LIMK1 = 0 | LIMK2 = 0 | LMTK2 = 0 | LYN 0 | MAP2K1 = 0 | MAP2K2 = 0 | MAP4K2 = 0

Cc1ncc(F)c(Nc2n[nH]c3c2CN(C(=O)N2C[C@@H](C)N(CC4CCOCC4)C[C@@H]2C)C3(C)C)n1 (10 µM)
inactive: IRAK3 = 0 | JAK1 = 0 | LCK 0 | LIMK1 = 0 | LIMK2 = 0 | LMTK2 = 0 | LYN 0 | MAP2K1 = 0 | MAP2K2 = 0 | MAP4K2 = 0

CN1CCN(c2ccc(NC(=O)c3ccc(C#N)o3)c(N3CCCCC3)c2)CC1 (10 µM)
inactive: IRAK3 = 0 | JAK1 = 0 | LCK 0 | LIMK1 = 0 | LIMK2 = 0 | LMTK2 = 0 | LYN 0 | MAP2K1 = 0 | MAP2K2 = 0 | MAP4K2 = 0

NC(=O)c1cccc2c(N[C@H](CN3CCC3)c3ccc(Cl)c(C(F)(F)F)c3)ncnc12 (10 µM)
inactive: IRAK3 = 0 | JAK1 = 0 | LCK 0 | LIMK1 = 0 | LIMK2 = 0 | LMTK2 = 0 | LYN 0 | MAP2K1 = 0 | MAP2K2 = 0 | MAP4K2 = 0

CCc1ccc(NC(=O)Nc2ccccc2)cc1 (10 µM)
inactive: IRAK3 = 0 | JAK1 = 0 | LCK 0 | LIMK1 = 0 | LIMK2 = 0 | LMTK2 = 0 | LYN 0 | MAP2K1 = 0 | MAP2K2 = 0 | MAP4K2 = 0

C[C@H](CC[C@@H](O)C(C)(C)O)[C@H]1CC[C@@]2(C)[C@@H]3CC=C4[C@@H](CC[C@H](O)C4(C)C)[C@]3(C)[C@H](O)C[C@]12C [Mogrol] (10 µM)
inactive: IRAK3 = 0 | JAK1 = 0 | LCK 0 | LIMK1 = 0 | LIMK2 = 0 | LMTK2 = 0 | LYN 0 | MAP2K1 = 0 | MAP2K2 = 0 | MAP4K2 = 0

CCOc1cc(C(=O)N2CCC(N3CCN(C)CC3)CC2)ccc1Nc1ncc2c(n1)N(S(C)(=O)=O)c1ccccc1C(=O)N2C (10 µM)
inactive: IRAK3 = 0 | JAK1 = 0 | LCK 0 | LIMK1 = 0 | LIMK2 = 0 | LMTK2 = 0 | LYN 0 | MAP2K1 = 0 | MAP2K2 = 0 | MAP4K2 = 0

— the supplement of paper PMC12823440, “Inhibitors supercharge kinase turnover through native proteolytic circuits” (Nature, 2025)
